The values that follow come from the METLIN SMRT retention time set (Domingo-Almenara et al. 2019).

The series in a line: gradient 5% acetonitrile 3 min, to 50% in 2 min, to 85% in 15 min, held 3 min, 100 µL/min. Particulars: column: Zorbax Extend-C18 2.1 x 50 mm; eluents: water / acetonitrile, 0.1% formic acid. In a few lines: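 Standards, all pure, were combined into mixtures of ~100 molecules and run at 100 μL/min on a Zorbax Extend-C18 column (2.1 × 50 mm, 1.8 μm) with water and acetonitrile, each containing 0.1% formic acid. A coupled quadrupole time-of-flight mass spectrometer operated in positive and negative ionization mode. Retention time values come from computationally picked adduct peaks, each inspected manually.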

As to `COc1ccc(S(=O)(=O)N2CCCCC2)cc1C(=O)O`, the RP-LC retention time came out at 673 s.
